Source: PubChem BioAssay AID652272 (Drosophila RNAi Screening Center, 2013)
Test: 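Genes whose knock-down decreases or increases Hedgehog reporter output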 (primary screen). Cells: Drosophila clone 8 (Cl8) cells. Reagent: long dsRNA against Drosophila genes. Detection: 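Plate reader light from a firefly reporter under a ptc promoter fragment that responds to Hedgehog, with Renilla light as transfection reference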. Direction: firefly Hh reporter signal: higher = more ptc reporter light; Renilla reference signal: higher = more Renilla control light. Rule for the call: 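Hit when the z-score averaged over two replicates is under -2 or over +3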. Calls: active = hit: reporter lowered or raised; inactive = not a hit.
In all, the deposit lists about 21,000 reagents; this is a random part of those with a known target gene and a result. Of all reagents, 503 (2.4%) were called active. 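Raw plate light values, not normalised; calls rest on replicate z-scores that were not deposited; hits include reporter decreases as well as increases.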 Unmarked entries are inactive. Reagents against one gene are numbered here. Names joined by + are all predicted targets of the reagent. The record does not give: the amount of reagent, the time to read-out.

CG10344: firefly Hh reporter signal, replicate 1 = 90449; firefly Hh reporter signal, replicate 2 = 94278; Renilla reference signal, replicate 1 = 1352; Renilla reference signal, replicate 2 = 7004
ADD1 (ADD domain-containing protein 1): firefly Hh reporter signal, replicate 1 = 59200; firefly Hh reporter signal, replicate 2 = 49315; Renilla reference signal, replicate 1 = 2553; Renilla reference signal, replicate 2 = 1725
CG9799: firefly Hh reporter signal, replicate 1 = 95973; firefly Hh reporter signal, replicate 2 = 48586; Renilla reference signal, replicate 1 = 4304; Renilla reference signal, replicate 2 = 1700
Irp-1A (Iron regulatory protein 1A): firefly Hh reporter signal, replicate 1 = 1.62e5; firefly Hh reporter signal, replicate 2 = 8.89e5; firefly Hh reporter signal, replicate 3 = 1.31e5; Renilla reference signal, replicate 1 = 6552; Renilla reference signal, replicate 2 = 50021
CG11912: firefly Hh reporter signal, replicate 1 = 73760; firefly Hh reporter signal, replicate 2 = 75526; Renilla reference signal, replicate 1 = 3362; Renilla reference signal, replicate 2 = 3392
Trmt112 (tRNA methyltransferase subunit 11-2): firefly Hh reporter signal, replicate 1 = 1.07e5; firefly Hh reporter signal, replicate 2 = 1.62e5; Renilla reference signal, replicate 1 = 1692; Renilla reference signal, replicate 2 = 4663
CG7156: firefly Hh reporter signal, replicate 1 = 1.29e5; firefly Hh reporter signal, replicate 2 = 71853; Renilla reference signal, replicate 1 = 5079; Renilla reference signal, replicate 2 = 3196
Femcoat: firefly Hh reporter signal, replicate 1 = 72033; firefly Hh reporter signal, replicate 2 = 1.19e5; Renilla reference signal, replicate 1 = 2215; Renilla reference signal, replicate 2 = 4955
CG8925 #1: firefly Hh reporter signal, replicate 1 = 95201; firefly Hh reporter signal, replicate 2 = 1.16e5; Renilla reference signal, replicate 1 = 1603; Renilla reference signal, replicate 2 = 3369
CG8925 #2: firefly Hh reporter signal, replicate 1 = 80073; firefly Hh reporter signal, replicate 2 = 1.41e5; Renilla reference signal, replicate 1 = 2240; Renilla reference signal, replicate 2 = 3862
CG8925 #3: firefly Hh reporter signal, replicate 1 = 60785; firefly Hh reporter signal, replicate 2 = 81915; Renilla reference signal, replicate 1 = 1456; Renilla reference signal, replicate 2 = 2080
CG14932: firefly Hh reporter signal, replicate 1 = 1.27e5; firefly Hh reporter signal, replicate 2 = 67172; Renilla reference signal, replicate 1 = 3067; Renilla reference signal, replicate 2 = 4453
CG13078: firefly Hh reporter signal, replicate 1 = 70268; firefly Hh reporter signal, replicate 2 = 43686; Renilla reference signal, replicate 1 = 1865; Renilla reference signal, replicate 2 = 4007
ine (inebriated): firefly Hh reporter signal, replicate 1 = 1.04e5; firefly Hh reporter signal, replicate 2 = 75136; Renilla reference signal, replicate 1 = 4160; Renilla reference signal, replicate 2 = 2512
Acp26Aa (Accessory gland protein 26Aa): firefly Hh reporter signal, replicate 1 = 83638; firefly Hh reporter signal, replicate 2 = 48061; Renilla reference signal, replicate 1 = 2295; Renilla reference signal, replicate 2 = 5399
Dab (Disabled): firefly Hh reporter signal, replicate 1 = 6.26e5; firefly Hh reporter signal, replicate 2 = 1.67e5; firefly Hh reporter signal, replicate 3 = 1.08e5; Renilla reference signal, replicate 1 = 1634; Renilla reference signal, replicate 2 = 5024
RpS27A (Ribosomal protein S27A): firefly Hh reporter signal, replicate 1 = 60244 (active); firefly Hh reporter signal, replicate 2 = 30906; Renilla reference signal, replicate 1 = 2550; Renilla reference signal, replicate 2 = 4000
CG43331: firefly Hh reporter signal, replicate 1 = 1.25e5; firefly Hh reporter signal, replicate 2 = 1.66e5; Renilla reference signal, replicate 1 = 4883; Renilla reference signal, replicate 2 = 2720
CG8366: firefly Hh reporter signal, replicate 1 = 89913; firefly Hh reporter signal, replicate 2 = 61205; Renilla reference signal, replicate 1 = 2469; Renilla reference signal, replicate 2 = 4720
Sec22 + CG13358: firefly Hh reporter signal, replicate 1 = 91056; firefly Hh reporter signal, replicate 2 = 91558; Renilla reference signal, replicate 1 = 2034; Renilla reference signal, replicate 2 = 3004
Ir20a (Ionotropic receptor 20a): firefly Hh reporter signal, replicate 1 = 48934; firefly Hh reporter signal, replicate 2 = 2.14e5; Renilla reference signal, replicate 1 = 1747; Renilla reference signal, replicate 2 = 9168
Sgs3 (Salivary gland secretion 3): firefly Hh reporter signal, replicate 1 = 62455; firefly Hh reporter signal, replicate 2 = 55152; firefly Hh reporter signal, replicate 3 = 86966; Renilla reference signal, replicate 1 = 4969; Renilla reference signal, replicate 2 = 4781
Ir7d (Ionotropic receptor 7d): firefly Hh reporter signal, replicate 1 = 76451; firefly Hh reporter signal, replicate 2 = 1.65e5; Renilla reference signal, replicate 1 = 2308; Renilla reference signal, replicate 2 = 7776
Icmt (Isoprenylcysteine carboxyl methyltransferase): firefly Hh reporter signal, replicate 1 = 52755; firefly Hh reporter signal, replicate 2 = 52074; firefly Hh reporter signal, replicate 3 = 74464; Renilla reference signal, replicate 1 = 5577; Renilla reference signal, replicate 2 = 5345
Lamtor4 (Late endosomal/lysosomal adaptor, MAPK and MTOR activator 4): firefly Hh reporter signal, replicate 1 = 75114; firefly Hh reporter signal, replicate 2 = 59063; Renilla reference signal, replicate 1 = 1829; Renilla reference signal, replicate 2 = 3580
cdm (cadmus): firefly Hh reporter signal, replicate 1 = 1.16e5; firefly Hh reporter signal, replicate 2 = 1.10e5; Renilla reference signal, replicate 1 = 5501; Renilla reference signal, replicate 2 = 4258
CG3702: firefly Hh reporter signal, replicate 1 = 89853; firefly Hh reporter signal, replicate 2 = 83381; Renilla reference signal, replicate 1 = 3876; Renilla reference signal, replicate 2 = 3376

4 of these entries, reformatted.
target | reagent no. | firefly Hh reporter signal, replicate 1 | firefly Hh reporter signal, replicate 2 | firefly Hh reporter signal, replicate 3 | Renilla reference signal, replicate 1 | Renilla reference signal, replicate 2
CG10344 | 1 | 90449 | 94278 | – | 1352 | 7004
ADD1 (ADD domain-containing protein 1) | 1 | 59200 | 49315 | – | 2553 | 1725
CG9799 | 1 | 95973 | 48586 | – | 4304 | 1700
Irp-1A (Iron regulatory protein 1A) | 1 | 1.62e5 | 8.89e5 | 1.31e5 | 6552 | 50021
